# Laboratory results as given in US20230039395A1, “LSD AND […] EQUIVALENCE DETERMINATION” (Universitätsspital Basel, priority 2021, published 2023).
# The chains behind the UniProt entries cited, without tags or fusion partners.
# UniProt P28223, whole entry: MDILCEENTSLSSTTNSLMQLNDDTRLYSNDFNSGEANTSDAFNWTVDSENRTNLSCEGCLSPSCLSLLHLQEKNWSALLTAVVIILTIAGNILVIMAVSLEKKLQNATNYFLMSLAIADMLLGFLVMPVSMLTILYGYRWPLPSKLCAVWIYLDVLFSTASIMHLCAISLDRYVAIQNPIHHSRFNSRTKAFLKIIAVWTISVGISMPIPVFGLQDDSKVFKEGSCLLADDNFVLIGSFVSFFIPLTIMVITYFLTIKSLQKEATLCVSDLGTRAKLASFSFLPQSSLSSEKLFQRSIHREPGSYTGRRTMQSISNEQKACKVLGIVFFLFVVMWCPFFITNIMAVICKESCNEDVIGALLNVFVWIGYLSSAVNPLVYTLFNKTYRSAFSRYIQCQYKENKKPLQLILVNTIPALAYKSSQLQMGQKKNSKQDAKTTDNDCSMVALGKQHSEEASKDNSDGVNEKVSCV
# Entries after “also recorded” stand apart in the source; their conditions may differ. At least one structure is not confirmed: it was looked up by name or label, or the drawing left a doubt.
# Legend:
# [1] = Endocrine effects: plasma cortisol and prolactin (PRL); format: in vivo, human; conditions: 2.5 hours after administration
# Experimental: The subjects then underwent baseline measurements.
# Endocrine effects: Plasma concentrations of cortisol, prolactin (PRL), oxytocin, and brain-derived neurotrophic factor (BDNF) were determined as described elsewhere (Holze et al., 2021; Schmid et al., 2015). Cortisol and PRL were measured before and 2.5 hours after drug administration. BDNF was measured before and three times after drug administration.
# The criterion for significance was p<0.05.
# [2] = target: serotonin (5-HT)2A receptors (Homo sapiens, UniProt P28223); conditions: cited from earlier work
# [3] = Adjective Mood Rating Scale (AMRS) in healthy subjects
# [4] = Mystical Experience Questionnaire (MEQ43 and MEQ30) in healthy subjects
# [5] = Subjective drug effects on visual analog scales (VAS) in healthy subjects
# [6] = 5 Dimensions of Altered States of Consciousness Scale (5D-ASC) in healthy subjects
# [7] = Autonomic effects (blood pressure, heart rate, body temperature, pupil) in healthy subjects; conditions: psilocybin 30 mg; p=0.002, p<0.001, p=0.02
compound,measurement,setting,value
CN(C)CCc1c[nH]c2cccc(OP(=O)(O)O)c12 [psilocybin],PRL plasma concentrations,[1],significantly increased
same,cortisol plasma concentrations,[1],significantly increased
same,binding to 5-HT2A receptors,[2],bind
same,AMRS extraversion ratings versus placebo,[3]; all doses,decrease
same,AMRS inactivation ratings versus placebo,[3]; all doses,significantly and similarly increased
same,AMRS introversion ratings versus placebo,[3]; all doses,increased
same,AMRS self-rated anxiety,[3]; psilocybin 30 mg,slightly but significantly increased
same,MEQ mystical experience ratings versus either LSD dose or 30 mg psilocybin,[4]; psilocybin 15 mg,significantly smaller
same,MEQ effect versus 200 μg LSD,[4]; psilocybin 30 mg,slightly lower effect
same,MEQ increase versus 100 μg LSD,[4]; psilocybin 30 mg,nominally similar increase
same,dose-response curve of subjective effects,[5]; 15-30 mg psilocybin range compared to 100-200 μg LSD range,steeper
same,duration of effects compared with LSD,"[5]; human, in vivo",shorter
same,"effects on VAS any drug effects, good drug effect, stimulated, talkative, perception of time, ego-dissolution, versus 200 μg LSD",[5]; psilocybin 15 mg,significantly lower
same,subjective effects versus psilocybin 30 mg and both LSD doses,[5]; psilocybin 15 mg,clearly lower
same,"peak responses on VAS any drug effect, good drug effect, stimulated, speed of thinking, perception of time, ego dissolution, versus 15 mg psilocybin",[5]; psilocybin 30 mg,significantly greater
same,maximal subjective effects / effect intensity versus 100 or 200 μg LSD,"[5]; psilocybin 30 mg, all VAS",similar; also recorded: comparable
same,alterations of the mind in the 5D-ASC scale,"[6]; human, in vivo",marked alterations of the mind
same,"5D-ASC effects versus LSD 100 or 200 μg or psilocybin 30 mg, most subscales",[6]; psilocybin 15 mg,clearly lower
same,5D-ASC alterations of the mind versus LSD 100 μg or LSD 200 μg,[6]; psilocybin 30 mg,statistically not different
same,"reduction of pupillary constriction in response to light versus psilocybin 15 mg, LSD 100 μg and LSD 200 μg",[7],more pronounced
